Test: general procedure: solution-phase peptide synthesis; N,N'-dicyclohexyl carbodiimide
Details: coupling step

Substance	step yield [%]
Ac-Asp(OBzl)-Ala-Ala-Pro-NH-iBu	45
BOC-Glu(OBzl)-Ala-Ala-Ala-NH-iBu	55
Ac-Asp(OBzl)-Gly-Ala-Pro-NH-iBu	52

Same assay, conditions: late stage modification step

Substance	step yield [%]
N^α -Butyrylaspartyl-alanyl-alanyl-proline isobutylamide	76
N^α -caproylglutamyl-alanyl-alanyl-alanine isobutylamide	63
Glu(OBzl)-Ala-Ala-Ala-NH-iBu.HCl	69

Reference: patent US4528133A (SPOFA, spojene podniky pro zdravotnickou vyrobu, priority 1982, dated 1985)
